Test results as given in patent US20070207522A1 (UNIVERSITY OF VIRGINIA PATENT FOUNDATION, published 2007).
Results are given in words; binding and its absence hold for the method and conditions named. For some assays here: Binding seen in cells or lysates may run through a third protein. Some results given as binding are weak or reduced against the parent protein; the word gives no strength. For some assays here: Tags and fused reporters may be left off the sequences shown.

T1: human syndecan-1 (human, UniProt P18827 23-310)
T1 construct: also called mammalian syndecan-1; CD138
T1 sequence (looked up): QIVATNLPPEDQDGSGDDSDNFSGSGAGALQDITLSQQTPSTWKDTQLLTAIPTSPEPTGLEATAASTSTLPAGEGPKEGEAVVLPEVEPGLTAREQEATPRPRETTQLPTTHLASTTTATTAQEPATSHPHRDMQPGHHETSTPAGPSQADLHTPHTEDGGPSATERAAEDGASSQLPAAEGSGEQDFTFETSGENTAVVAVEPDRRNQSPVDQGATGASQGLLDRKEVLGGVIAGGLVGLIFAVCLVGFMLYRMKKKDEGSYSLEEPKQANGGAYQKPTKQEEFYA

B1: intein-tagged lacritin deletion mutant N-24 (ligand, not shown: small tags and cut ends)
chain: ISGPAEPASPPETTTTAQETSAAAVQGTAKVTSSRQELNPLKSIVEKSILLTEQALAKAGKGMHGGVPGGKQFIENGSEFAQKLLKKFSLLKPWA
B2: lacritin deletion mutant N-24 (soluble) (ligand)
chain: B1 chain

How the values were obtained:
[1] = molecular target: T1, human syndecan-1; experiment: pull-down with intein-tagged deletion mutant
[2] = molecular target: T1, human syndecan-1; experiment: competitive binding assay, soluble competitor against lacritin binding to syndecan-1

| Binder | binding [1] | binding [2] |
| --- | --- | --- |
| B1 | binds |  |
| B2 |  | binds |
